Reference: patent US9034391B2, “Compositions with enhanced bioavailability and fast acting inhibitor or gastric acid secretion” (YALE UNIVERSITY, priority 2006, dated 2015)
“Also recorded” adds a separate entry of the source. For at least one compound, name, drawing or mass did not settle the structure.

By UniProt entry, the sequences of proteins in these tests, tags left out.
UniProt P09626, whole entry: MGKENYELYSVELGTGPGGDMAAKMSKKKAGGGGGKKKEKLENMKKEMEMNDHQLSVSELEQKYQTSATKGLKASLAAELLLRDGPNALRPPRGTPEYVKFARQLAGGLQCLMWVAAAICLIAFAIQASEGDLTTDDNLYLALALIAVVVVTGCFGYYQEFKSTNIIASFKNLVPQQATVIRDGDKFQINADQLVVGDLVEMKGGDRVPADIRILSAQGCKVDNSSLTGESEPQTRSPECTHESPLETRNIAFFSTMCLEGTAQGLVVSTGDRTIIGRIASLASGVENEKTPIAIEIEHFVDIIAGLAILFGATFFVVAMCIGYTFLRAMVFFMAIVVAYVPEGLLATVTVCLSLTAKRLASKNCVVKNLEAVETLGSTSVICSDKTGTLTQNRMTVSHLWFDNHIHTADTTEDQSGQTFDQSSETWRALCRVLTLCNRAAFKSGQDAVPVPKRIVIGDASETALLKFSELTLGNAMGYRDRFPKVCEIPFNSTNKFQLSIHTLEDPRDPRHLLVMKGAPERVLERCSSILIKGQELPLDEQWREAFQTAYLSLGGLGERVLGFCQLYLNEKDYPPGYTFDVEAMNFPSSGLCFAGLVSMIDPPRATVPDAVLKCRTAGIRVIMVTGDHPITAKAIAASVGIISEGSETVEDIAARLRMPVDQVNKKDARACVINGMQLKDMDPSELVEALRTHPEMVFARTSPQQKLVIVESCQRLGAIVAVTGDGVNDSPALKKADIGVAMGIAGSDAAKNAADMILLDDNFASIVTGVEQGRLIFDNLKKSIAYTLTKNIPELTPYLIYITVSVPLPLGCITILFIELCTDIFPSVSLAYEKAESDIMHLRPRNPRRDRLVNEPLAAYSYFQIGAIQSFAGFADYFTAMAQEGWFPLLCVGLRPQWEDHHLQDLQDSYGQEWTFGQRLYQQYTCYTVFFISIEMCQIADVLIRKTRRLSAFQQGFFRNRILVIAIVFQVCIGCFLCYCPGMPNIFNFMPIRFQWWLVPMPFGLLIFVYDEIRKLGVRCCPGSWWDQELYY

Assays:
fundic H+,K+-ATPase = biological target: T1, fundic H+,K+-ATPase (Rattus norvegicus, UniProt P09626); test: Intracellular pH recovery in isolated rat fundic (F1) glands; assay type: cell-based
T1 construct: Glands adjacent to the esophageal junction were hand dissected; from tissue; host or cells: hand-dissected fundic glands of Sprague Dawley rat stomach, next to the esophageal junction
Procedure: Male Sprague Dawley rats weighing 200-300 g were housed in climate and humidity controlled, light cycled rooms and fed standard chow with free access to water. Prior to experiments, animals were fasted while allowing free access to water for 18-24 hours to reduce basal acid secretion. Following isoflurane anesthesia the animals were sacrificed, an abdominal incision was made exposing the stomach. After isolating the esophagus and duodenal junctures a total gastrectomy was performed with 1-2 cm of esophagus remaining attached to the gastrectomy. We included the esophageal juncture to have a common landmark for all fundic isolations. While holding the esophagus with forceps approximately 3 mm of fundus was removed with 5 mm of the intact esophagus.
The removed fundic tissue was placed in ice cold HEPES-buffered Ringer-solution (pH adjusted to 7.4 at 4° C.) and transferred to the stage of a dissection microscope. The fundic glands were visualized under the microscope at 50× magnification. Glands adjacent to the esophageal junction were hand dissected. […]
Using the same protocol that we developed for isolated corpus gland perfusion^20a, 21a individual fundic glands were loaded with a […] of the pH sensitive dye (BCECF, (2′7-bis(2-carbocyethal)-5-(and 6)-carboxyflurorescein-acetomethylester; Molecular Probes, OR USA)) for 15 minutes. […] Acid extrusion was monitored in the absence of bicarbonate. […] Intracellular pH recovery rates (H^+, K^+-ATPase activity) were measured in Na^+ free HEPES solutions containing: 1) 100 μM histamine 2) 100 μM pentagastrin. […]
The recovery rates are expressed as the ΔpHi/min, and were calculated over the pH range of 6.5-6.9.
Activation of acid secretion via histamine, acetylcholine or pentagastrin was induced by preincubation of the glands for 15 min before the experiment combined with BCECF (100 μM) loading. All data are summarized as mean±S.E. Significance was determined using the one-way ANOVA test with p<0.05 considered to be statistically significant. […]

H+,K+-ATPase = biological target: T2, H+,K+-ATPase (Rattus norvegicus, UniProt P09626); test: Intracellular pH recovery in rat corpus glands (fundus/corpus comparison); assay type: cell-based; settings: corpus glands
T2 construct: Individual glands were isolated using a hand-dissection technique as described previously; from tissue; host or cells: hand-dissected rat gastric glands (corpus and antrum), parietal cells
Procedure: Molecular Probes, OR USA)) for 15 minutes. […] Measurements were performed in the epifluorescence mode with 60×/0.80 and 40×/0.90 objectives. […] Data points were acquired every 15 s. […] Acid extrusion was monitored in the absence of bicarbonate. […] All data are summarized as mean±S.E. Significance was determined using the one-way ANOVA test with p<0.05 considered to be statistically significant. All chemicals used were obtained from Sigma and Molecular Probes.

Row | SMILES | F1 gland alkalinization rate (fundic H+,K+-ATPase; 100 μM secretagogue alone) | effect on corpus acid secretion (in words) (H+,K+-ATPase) | F1 gland alkalinization rate (fundic H+,K+-ATPase; 200 μM omeprazole and 100 μM histamine) | effect on fundic (F1) acid secretion (in words) (fundic H+,K+-ATPase; histamine 100 μM)
1 | CC(=O)OCC[N+](C)(C)C [acetylcholine] | 0.075±0.0015 ΔpHi/min | – | – | –
2 | COc1ccc2[nH]c([S+]([O-])Cc3ncc(C)c(OC)c3C)nc2c1 (stereo not shown) [omeprazole] | – | abolished | 0.045±0.002 ΔpHi/min | does not inhibit acid secretion; also recorded: did not inhibit acid secretion
